Experimental data: paper PMC12134396
These are yes or no findings as the source states them, for the method shown. In cells and extracts the contact can be indirect. A yes stands for co-enrichment or nearness to the bait. Other partners may have been found.

By UniProt entry, the sequences of proteins in these tests, tags left out.
UniProt P42771: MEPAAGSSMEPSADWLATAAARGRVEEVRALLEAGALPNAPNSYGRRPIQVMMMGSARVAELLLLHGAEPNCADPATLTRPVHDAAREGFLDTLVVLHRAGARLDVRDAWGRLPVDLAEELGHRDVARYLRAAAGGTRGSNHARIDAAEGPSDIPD
UniProt P40763: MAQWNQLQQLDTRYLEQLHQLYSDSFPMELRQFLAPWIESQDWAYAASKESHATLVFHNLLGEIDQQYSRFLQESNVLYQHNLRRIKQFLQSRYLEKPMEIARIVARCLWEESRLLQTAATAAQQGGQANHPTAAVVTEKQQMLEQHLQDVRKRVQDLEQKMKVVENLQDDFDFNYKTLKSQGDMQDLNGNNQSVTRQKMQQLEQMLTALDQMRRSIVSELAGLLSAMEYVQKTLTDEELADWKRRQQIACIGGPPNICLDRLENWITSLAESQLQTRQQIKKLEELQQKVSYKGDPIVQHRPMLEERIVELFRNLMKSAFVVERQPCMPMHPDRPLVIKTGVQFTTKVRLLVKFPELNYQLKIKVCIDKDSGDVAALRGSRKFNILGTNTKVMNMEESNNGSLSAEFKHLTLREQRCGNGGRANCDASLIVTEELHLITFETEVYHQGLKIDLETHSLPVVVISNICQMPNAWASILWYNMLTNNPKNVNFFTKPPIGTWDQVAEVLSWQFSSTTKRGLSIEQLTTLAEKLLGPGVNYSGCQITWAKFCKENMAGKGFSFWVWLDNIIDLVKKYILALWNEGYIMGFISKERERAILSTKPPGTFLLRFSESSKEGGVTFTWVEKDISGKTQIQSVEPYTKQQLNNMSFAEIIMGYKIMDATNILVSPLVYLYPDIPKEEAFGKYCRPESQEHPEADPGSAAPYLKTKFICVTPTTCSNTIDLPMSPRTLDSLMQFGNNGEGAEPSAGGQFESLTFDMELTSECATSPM

Target: p16^INK4a, overexpressed from adenovirus in fibroblasts (p16-OE) (UniProt P42771)
Assay: affinity purification with mass spectrometry; anti-p16 immunoprecipitation of lysates of HCFB cells transduced with p16-overexpressing adenovirus, then mass spectrometry

binding: binds
Substance: STAT3, endogenous in human fibroblasts (from UniProt P40763 1-770)
